Results are given in words; binding and its absence hold for the method and conditions named. Binding seen in cells or lysates may run through a third protein. Some results given as binding are weak or reduced against the parent protein; the word gives no strength. For some of these results: Where a sequence is shown, tags or fusion partners need not be part of it.

Sequences of proteins named here, by UniProt entry; tags and fusion partners are left off.
UniProt Q01469: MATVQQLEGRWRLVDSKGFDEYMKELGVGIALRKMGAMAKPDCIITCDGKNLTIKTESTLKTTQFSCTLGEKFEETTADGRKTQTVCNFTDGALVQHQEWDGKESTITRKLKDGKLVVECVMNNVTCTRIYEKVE

The target of assay [1] is T1, GST-ERRα (estrogen-related receptor α) fusion protein, wild type (human) (UniProt P11474).
T1 sequence: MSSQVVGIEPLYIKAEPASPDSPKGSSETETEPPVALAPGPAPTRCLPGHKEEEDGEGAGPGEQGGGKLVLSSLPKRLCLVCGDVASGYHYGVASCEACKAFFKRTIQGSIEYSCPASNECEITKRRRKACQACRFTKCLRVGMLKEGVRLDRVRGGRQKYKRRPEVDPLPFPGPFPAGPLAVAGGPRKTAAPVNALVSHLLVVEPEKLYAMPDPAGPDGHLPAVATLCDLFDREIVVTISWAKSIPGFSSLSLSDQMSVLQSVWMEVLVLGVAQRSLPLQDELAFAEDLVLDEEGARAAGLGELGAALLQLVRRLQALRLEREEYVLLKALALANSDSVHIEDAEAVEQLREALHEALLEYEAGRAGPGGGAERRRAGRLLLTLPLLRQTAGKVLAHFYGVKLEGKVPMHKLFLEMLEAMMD
The experiment in a line: pull-down; GST or GST-ERRα (wt, Δ300aa, Δ398aa) incubated with PC-3 whole cell lysates and glutathione sepharose overnight at 4°C; washed three times with 50 mM Tris-HCl pH 7.5, 150 mM NaCl, 0.05% Tween20; western blot for GST, FABP5 and PGC-1β; only the target purified. Background: Immunoblotting shows a protein as a band on a membrane.

The target of a further assay is 3×FLAG-FABP5 (human) (UniProt Q01469). The experiment in a line: co-IP; lysates (50 mM Tris-HCl, 150 mM NaCl, 1 mM EDTA, 1% NP-40) of 293T cells transfected with pCI-neo or pCI-neo/3×FLAG-FABP5, agarose-conjugated anti-DDDDK-tag overnight at 4°C; western blot.

On to “fatty acid-binding protein 5 (FABP5), endogenous in PC-3 cells (from UniProt Q01469 1-135)”, for which, in assay [1], the binding result is on record as “binds”.

B1: estrogen-related receptor α (ERRα), endogenous in 293T cells (protein, UniProt P11474 1-423)
chain: MSSQVVGIEPLYIKAEPASPDSPKGSSETETEPPVALAPGPAPTRCLPGHKEEEDGEGAGPGEQGGGKLVLSSLPKRLCLVCGDVASGYHYGVASCEACKAFFKRTIQGSIEYSCPASNECEITKRRRKACQACRFTKCLRVGMLKEGVRLDRVRGGRQKYKRRPEVDPLPFPGPFPAGPLAVAGGPRKTAAPVNALVSHLLVVEPEKLYAMPDPAGPDGHLPAVATLCDLFDREIVVTISWAKSIPGFSSLSLSDQMSVLQSVWMEVLVLGVAQRSLPLQDELAFAEDLVLDEEGARAAGLGELGAALLQLVRRLQALRLEREEYVLLKALALANSDSVHIEDAEAVEQLREALHEALLEYEAGRAGPGGGAERRRAGRLLLTLPLLRQTAGKVLAHFYGVKLEGKVPMHKLFLEMLEAMMD
Take B1: in the assay with 3×FLAG-FABP5 (human), the binding entry was “binds”.

B2: peroxisome proliferator-activated receptor gamma coactivator 1-beta (PGC-1β), endogenous in PC-3 cells (protein, UniProt Q86YN6 1-1023)
chain: MAGNDCGALLDEELSSFFLNYLADTQGGGSGEEQLYADFPELDLSQLDASDFDSATCFGELQWCPENSETEPNQYSPDDSELFQIDSENEALLAELTKTLDDIPEDDVGLAAFPALDGGDALSCTSASPAPSSAPPSPAPEKPSAPAPEVDELSLLQKLLLATSYPTSSSDTQKEGTAWRQAGLRSKSQRPCVKADSTQDKKAPMMQSQSRSCTELHKHLTSAQCCLQDRGLQPPCLQSPRLPAKEDKEPGEDCPSPQPAPASPRDSLALGRADPGAPVSQEDMQAMVQLIRYMHTYCLPQRKLPPQTPEPLPKACSNPSQQVRSRPWSRHHSKASWAEFSILRELLAQDVLCDVSKPYRLATPVYASLTPRSRPRPPKDSQASPGRPSSVEEVRIAASPKSTGPRPSLRPLRLEVKREVRRPARLQQQEEEDEEEEEEEEEEEKEEEEEWGRKRPGRGLPWTKLGRKLESSVCPVRRSRRLNPELGPWLTFADEPLVPSEPQGALPSLCLAPKAYDVERELGSPTDEDSGQDQQLLRGPQIPALESPCESGCGDMDEDPSCPQLPPRDSPRCLMLALSQSDPTFGKKSFEQTLTVELCGTAGLTPPTTPPYKPTEEDPFKPDIKHSLGKEIALSLPSPEGLSLKATPGAAHKLPKKHPERSELLSHLRHATAQPASQAGQKRPFSCSFGDHDYCQVLRPEGVLQRKVLRSWEPSGVHLEDWPQQGAPWAEAQAPGREEDRSCDAGAPPKDSTLLRDHEIRASLTKHFGLLETALEEEDLASCKSPEYDTVFEDSSSSSGESSFLPEEEEEEGEEEEEDDEEEDSGVSPTCSDHCPYQSPPSKANRQLCSRSRSSSGSSPCHSWSPATRRNFRCESRGPCSDRTPSIRHARKRREKAIGEGRVVYIQNLSSDMSSRELKRRFEVFGEIEECEVLTRNRRGEKYGFITYRCSEHAALSLTKGAALRKRNEPSFQLSYGGLRHFCWPRYTDYDSNSEEALPASGKSKYEAMDFDSLLKEAQQSLH
B2: the binding result in assay [1] is “binds”.

B3: peroxisome proliferator-activated receptor gamma coactivator 1-beta (PGC-1β), in 293T cells (protein, UniProt Q86YN6 1-1023)
chain: MAGNDCGALLDEELSSFFLNYLADTQGGGSGEEQLYADFPELDLSQLDASDFDSATCFGELQWCPENSETEPNQYSPDDSELFQIDSENEALLAELTKTLDDIPEDDVGLAAFPALDGGDALSCTSASPAPSSAPPSPAPEKPSAPAPEVDELSLLQKLLLATSYPTSSSDTQKEGTAWRQAGLRSKSQRPCVKADSTQDKKAPMMQSQSRSCTELHKHLTSAQCCLQDRGLQPPCLQSPRLPAKEDKEPGEDCPSPQPAPASPRDSLALGRADPGAPVSQEDMQAMVQLIRYMHTYCLPQRKLPPQTPEPLPKACSNPSQQVRSRPWSRHHSKASWAEFSILRELLAQDVLCDVSKPYRLATPVYASLTPRSRPRPPKDSQASPGRPSSVEEVRIAASPKSTGPRPSLRPLRLEVKREVRRPARLQQQEEEDEEEEEEEEEEEKEEEEEWGRKRPGRGLPWTKLGRKLESSVCPVRRSRRLNPELGPWLTFADEPLVPSEPQGALPSLCLAPKAYDVERELGSPTDEDSGQDQQLLRGPQIPALESPCESGCGDMDEDPSCPQLPPRDSPRCLMLALSQSDPTFGKKSFEQTLTVELCGTAGLTPPTTPPYKPTEEDPFKPDIKHSLGKEIALSLPSPEGLSLKATPGAAHKLPKKHPERSELLSHLRHATAQPASQAGQKRPFSCSFGDHDYCQVLRPEGVLQRKVLRSWEPSGVHLEDWPQQGAPWAEAQAPGREEDRSCDAGAPPKDSTLLRDHEIRASLTKHFGLLETALEEEDLASCKSPEYDTVFEDSSSSSGESSFLPEEEEEEGEEEEEDDEEEDSGVSPTCSDHCPYQSPPSKANRQLCSRSRSSSGSSPCHSWSPATRRNFRCESRGPCSDRTPSIRHARKRREKAIGEGRVVYIQNLSSDMSSRELKRRFEVFGEIEECEVLTRNRRGEKYGFITYRCSEHAALSLTKGAALRKRNEPSFQLSYGGLRHFCWPRYTDYDSNSEEALPASGKSKYEAMDFDSLLKEAQQSLH
Turning to B3, the binding result in the assay with 3×FLAG-FABP5 (human) is recorded as “binds”.

Values taken from article PMC6114981.
